Data: US6861256B2, “Therapeutic and diagnostic tools for impaired glucose tolerance conditions” (The General Hospital Corporation, priority 1997, dated 2005)

System: C. elegans dauers
Test: Dauer recovery assay on drug plates
Format: in vivo
Details: for dauer recovery after temperature downshift with food: 15 degrees, atropine 1 mM
Description: Minimal media plates were used for the drug assays: 3.0 g NaCl, 20 g agarose (Sigma-Type II #A6877) and 970 ml of water. The autoclaved solution was cooled to 50-55° C. before 25 ml of 1M KPO4 (pH 6.0), 1.0 ml 1M CaCl2, 1.0 ml of 1M MgSO4, and 1 ml of 5 mg/ml cholesterol were added. In some assays, Escherichia coli (DH5α) bacteria arrested with streptomycin was added to each plate.
In some experiments, 100-200 eggs or synchronized L1s were put onto the drug plates. For all experiments described herein, about 10,000 L1s were placed in 10 ml of S Medium containing 1-2 ml of a 0.4% (w/v) solution of Escherichia coli DH5α bacteria in M9 solution (Wood (1988) (Cold Spring Harbor Laboratory Press, Cold Spring Harbor, N.Y.)) arrested with streptomycin, in a 25 ml flask on a rotating heated water bath at 25° C. For wild-type N2 dauers, 600 μl of the 0.4% bacterial solution and pheromone was also added to flask as described in Gottlieb and Ruvkun (1994) Genetics 137:107120. The pheromone preparation is a solution prepared as follows. Animals were grown in a large flask for several generations, and then spun down. The supernatant was boiled down to a brownish powder and then ethanol extracted. After 72 hours of liquid growth, animals were centrifuged and the supernatant removed. Animals were then resuspended in a 15 ml tube with a pre-heated 25° C. solution of 1% SDS and tubes were placed on a rocker at 25° C. for 30 minutes. Animals were centrifuged and the SDS removed. Animals were washed with either M9 or S medium (Wood (1988) (Cold Spring Harbor Laboratory Press, Cold Spring Harbor, N.Y.)) 4-6 times. After a final spin, 100-200 dauers were placed onto the drug plates without food. 24 and 48 hours later, plates were scored for the number of dauers and non-dauer adults.
For each strain tested, a control plate without any drug, with and without food was also tested. With no drug, there was 40% recovery in N2 dauers. The high value for the control plate in N2 may have been due to experimental procedure. […]

CN1[C@@H]2CC[C@H]1C[C@@H](OC(=O)C(CO)c1ccccc1)C2 (stereo partly drawn) [atropine]
dauer recovery after temperature downshift with food (daf-2(e1370) dauers): completely inhibited dauer recovery
dauer recovery after temperature downshift with food (daf-7(e1372) dauers): completely inhibited dauer recovery
remained arrested at the dauer stage (wild-type N2 dauers, bacterial food + 1 mM atropine, 25 degrees, 42 hours): 82%
